The results in this text go back to article doi:10.1101/2022.09.15.508156.

Results are given in words; binding and its absence hold for the method and conditions named. In cells and extracts the contact can be indirect. Binding can be weak; no strength is given.

The assay has as its target GST-CBUA0027 (Coxiella burnetii) (UniProt H7C7G0). The assay can be described thus: pull-down.

Consider CBUA0028-V5-6xHis (from UniProt B5U8Q4), for which the binding entry is given as “binds”.
